No constants are given. Whether binding was seen depends on the method and setting. Binding seen in cells or lysates may run through a third protein. These calls come from enrichment with a bait or labelling near it, and not all partners need be listed. Where a sequence is shown, tags or fusion partners need not be part of it.

Amino acid sequences for entries named in this document (tags omitted). Residues count along the entry.
UniProt P14314, residues 15-528: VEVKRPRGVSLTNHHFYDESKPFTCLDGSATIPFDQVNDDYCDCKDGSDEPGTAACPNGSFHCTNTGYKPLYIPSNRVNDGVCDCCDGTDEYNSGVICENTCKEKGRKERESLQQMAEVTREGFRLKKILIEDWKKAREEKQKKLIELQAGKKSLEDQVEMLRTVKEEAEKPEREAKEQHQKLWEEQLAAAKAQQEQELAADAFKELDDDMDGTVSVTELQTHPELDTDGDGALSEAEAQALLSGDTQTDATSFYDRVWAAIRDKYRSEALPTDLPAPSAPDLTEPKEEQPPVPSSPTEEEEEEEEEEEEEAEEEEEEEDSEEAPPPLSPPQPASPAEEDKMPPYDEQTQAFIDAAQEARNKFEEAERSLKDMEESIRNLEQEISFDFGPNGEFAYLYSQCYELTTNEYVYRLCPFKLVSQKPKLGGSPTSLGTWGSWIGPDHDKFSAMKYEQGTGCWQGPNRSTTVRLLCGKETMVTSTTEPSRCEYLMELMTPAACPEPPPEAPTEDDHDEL
UniProt P07237, residues 18-508: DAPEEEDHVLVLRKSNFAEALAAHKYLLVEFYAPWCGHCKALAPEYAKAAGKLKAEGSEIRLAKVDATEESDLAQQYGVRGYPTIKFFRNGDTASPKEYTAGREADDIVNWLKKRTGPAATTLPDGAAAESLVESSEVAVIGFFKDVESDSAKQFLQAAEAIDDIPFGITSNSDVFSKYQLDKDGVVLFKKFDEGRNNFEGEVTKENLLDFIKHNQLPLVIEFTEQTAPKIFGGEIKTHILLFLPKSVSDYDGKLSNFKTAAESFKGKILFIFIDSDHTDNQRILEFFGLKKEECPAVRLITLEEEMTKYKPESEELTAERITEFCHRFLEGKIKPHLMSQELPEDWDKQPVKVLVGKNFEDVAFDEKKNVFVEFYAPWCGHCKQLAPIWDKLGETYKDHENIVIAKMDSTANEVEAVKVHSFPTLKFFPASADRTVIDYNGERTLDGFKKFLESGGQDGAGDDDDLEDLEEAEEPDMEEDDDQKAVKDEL
UniProt Q8NBS9, residues 33-432: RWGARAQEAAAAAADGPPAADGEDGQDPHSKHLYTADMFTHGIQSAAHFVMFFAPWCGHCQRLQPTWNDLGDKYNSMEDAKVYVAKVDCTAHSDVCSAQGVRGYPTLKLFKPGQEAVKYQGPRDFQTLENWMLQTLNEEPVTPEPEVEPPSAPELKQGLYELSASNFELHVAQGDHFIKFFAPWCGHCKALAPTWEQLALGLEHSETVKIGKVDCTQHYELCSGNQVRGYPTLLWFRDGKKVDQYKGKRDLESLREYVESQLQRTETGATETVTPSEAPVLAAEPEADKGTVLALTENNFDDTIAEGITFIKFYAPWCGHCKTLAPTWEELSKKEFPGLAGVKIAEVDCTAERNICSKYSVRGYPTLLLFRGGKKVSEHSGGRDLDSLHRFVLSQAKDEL

Here are results for six molecules from PMC4906395.

The target of the experiment is T1, Thioredoxin domain-containing protein 11 (TXNDC11) (human (endogenous; cell line of the immunoprecipitation not named)) (UniProt Q6PKC3).
T1 sequence: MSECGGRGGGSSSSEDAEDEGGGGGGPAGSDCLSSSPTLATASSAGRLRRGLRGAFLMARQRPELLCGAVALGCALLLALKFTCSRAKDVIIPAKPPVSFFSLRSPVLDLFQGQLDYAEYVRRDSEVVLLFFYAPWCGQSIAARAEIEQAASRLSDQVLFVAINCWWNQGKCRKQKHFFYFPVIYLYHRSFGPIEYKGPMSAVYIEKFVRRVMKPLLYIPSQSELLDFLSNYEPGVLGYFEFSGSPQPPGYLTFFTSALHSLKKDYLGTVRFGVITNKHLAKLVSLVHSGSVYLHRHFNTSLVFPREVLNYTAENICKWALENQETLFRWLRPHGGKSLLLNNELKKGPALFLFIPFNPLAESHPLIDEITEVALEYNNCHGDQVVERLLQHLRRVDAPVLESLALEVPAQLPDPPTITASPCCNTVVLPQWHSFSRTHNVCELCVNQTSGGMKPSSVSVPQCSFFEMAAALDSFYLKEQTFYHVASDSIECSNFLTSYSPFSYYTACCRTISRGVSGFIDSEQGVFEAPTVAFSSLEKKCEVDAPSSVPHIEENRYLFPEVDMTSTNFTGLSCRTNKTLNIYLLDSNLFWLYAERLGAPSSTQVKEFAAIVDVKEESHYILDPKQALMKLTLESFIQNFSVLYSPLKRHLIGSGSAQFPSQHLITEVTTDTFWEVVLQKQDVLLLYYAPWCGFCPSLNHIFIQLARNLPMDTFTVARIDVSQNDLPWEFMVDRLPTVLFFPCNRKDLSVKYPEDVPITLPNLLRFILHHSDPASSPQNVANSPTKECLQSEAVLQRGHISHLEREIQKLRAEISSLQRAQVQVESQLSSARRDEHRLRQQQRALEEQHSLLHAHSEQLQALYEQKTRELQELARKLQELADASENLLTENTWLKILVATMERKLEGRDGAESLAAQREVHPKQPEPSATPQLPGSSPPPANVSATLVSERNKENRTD
As to the kind of experiment: affinity purification with mass spectrometry; endogenous TXNDC11 immunoprecipitated from 1% digitonin lysates of wild-type cells, TXNDC11 knockout cells as control; protein A- or protein G-sepharose, 2 h at 4 °C, three washes in lysis buffer; SDS-PAGE, in-gel digestion, LC-MS/MS.

Consider “Glucosidase 2 subunit beta (GLU2B) (from UniProt P14314 15-528)”, for which the binding entry is given as “binds”.
The same measure for “Protein disulphide-isomerase (PDI) (from UniProt P07237 18-508) (enzyme)”: “binds”; for “Thioredoxin domain-containing protein 5 (TXNDC5) (from UniProt Q8NBS9 33-432) (enzyme)”: “binds”.

B1: ER degradation-enhancing alpha-mannosidase-like protein 3 (EDEM3) (enzyme, UniProt Q9BZQ6 42-932)
chain: EPMSREEKQKLGNQVLEMFDHAYGNYMEHAYPADELMPLTCRGRVRGQEPSRGDVDDALGKFSLTLIDSLDTLVVLNKTKEFEDAVRKVLRDVNLDNDVVVSVFETNIRVLGGLLGGHSLAIMLKEKGEYMQWYNDELLQMAKQLGYKLLPAFNTTSGLPYPRINLKFGIRKPEARTGTETDTCTACAGTLILEFAALSRFTGATIFEEYARKALDFLWEKRQRSSNLVGVTINIHTGDWVRKDSGVGAGIDSYYEYLLKAYVLLGDDSFLERFNTHYDAIMRYISQPPLLLDVHIHKPMLNARTWMDALLAFFPGLQVLKGDIRPAIETHEMLYQVIKKHNFLPEAFTTDFRVHWAQHPLRPEFAESTYFLYKATGDPYYLEVGKTLIENLNKYARVPCGFAAMKDVRTGSHEDRMDSFFLAEMFKYLYLLFADKEDIIFDIEDYIFTTEAHLLPLWLSTTNQSISKKNTTSEYTELDDSNFDWTCPNTQILFPNDPLYAQSIREPLKNVVDKSCPRGIIRVEESFRSGAKPPLRARDFMATNPEHLEILKKMGVSLIHLKDGRVQLVQHAIQAASSIDAEDGLRFMQEMIELSSQQQKEQQLPPRAVQIVSHPFFGRVVLTAGPAQFGLDLSKHKETRGFVASSKPSNGCSELTNPEAVMGKIALIQRGQCMFAEKARNIQNAGAIGGIVIDDNEGSSSDTAPLFQMAGDGKDTDDIKIPMLFLFSKEGSIILDAIREYEEVEVLLSDKAKDRDPEMENEEQPSSENDSQNQSGEQISSSSQEVDLVDQESSEENSLNSHPESLSLADMDNAASISPSEQTSNPTENHETTNLNGECTDLDNQLQEQSETEEDSNPNVSWGKKVQPIDSILADWNEDIEAFEMMEKDEL
Consider B1, for which the binding entry is “binds”.

B2: ER degradation-enhancing alpha-mannosidase-like protein 2 (EDEM2) (enzyme, UniProt Q9BV94 22-578)
chain: APGPDGSAPDPAHYRERVKAMFYHAYDSYLENAFPFDELRPLTCDGHDTWGSFSLTLIDALDTLLILGNVSEFQRVVEVLQDSVDFDIDVNASVFETNIRVVGGLLSAHLLSKKAGVEVEAGWPCSGPLLRMAEEAARKLLPAFQTPTGMPYGTVNLLHGVNPGETPVTCTAGIGTFIVEFATLSSLTGDPVFEDVARVALMRLWESRSDIGLVGNHIDVLTGKWVAQDAGIGAGVDSYFEYLVKGAILLQDKKLMAMFLEYNKAIRNYTRFDDWYLWVQMYKGTVSMPVFQSLEAYWPGLQSLIGDIDNAMRTFLNYYTVWKQFGGLPEFYNIPQGYTVEKREGYPLRPELIESAMYLYRATGDPTLLELGRDAVESIEKISKVECGFATIKDLRDHKLDNRMESFFLAETVKYLYLLFDPTNFIHNNGSTFDAVITPYGECILGAGGYIFNTEAHPIDPAALHCCQRLKEEQWEVEDLMREFYSLKRSRSKFQKNTVSSGPWEPPARPGTLFSPENHDQARERKPAKQKVPLLSCPSQPFTSKLALLGQVFLDSS
B2: the binding entry is “binds”.

B3: Glucosidase 2 subunit alpha (GANAB) (enzyme, UniProt Q14697 29-944)
chain: ITLAVDRSNFKTCEESSFCKRQRSIRPGLSPYRALLDSLQLGPDSLTVHLIHEVTKVLLVLELQGLQKNMTRFRIDELEPRRPRYRVPDVLVADPPIARLSVSGRDENSVELTMAEGPYKIILTARPFRLDLLEDRSLLLSVNARGLLEFEHQRAPRVSQGSKDPAEGDGAQPEETPRDGDKPEETQGKAEKDEPGAWEETFKTHSDSKPYGPMSVGLDFSLPGMEHVYGIPEHADNLRLKVTEGGEPYRLYNLDVFQYELYNPMALYGSVPVLLAHNPHRDLGIFWLNAAETWVDISSNTAGKTLFGKMMDYLQGSGETPQTDVRWMSETGIIDVFLLLGPSISDVFRQYASLTGTQALPPLFSLGYHQSRWNYRDEADVLEVDQGFDDHNLPCDVIWLDIEHADGKRYFTWDPSRFPQPRTMLERLASKRRKLVAIVDPHIKVDSGYRVHEELRNLGLYVKTRDGSDYEGWCWPGSAGYPDFTNPTMRAWWANMFSYDNYEGSAPNLFVWNDMNEPSVFNGPEVTMLKDAQHYGGWEHRDVHNIYGLYVHMATADGLRQRSGGMERPFVLARAFFAGSQRFGAVWTGDNTAEWDHLKISIPMCLSLGLVGLSFCGADVGGFFKNPEPELLVRWYQMGAYQPFFRAHAHLDTGRREPWLLPSQHNDIIRDALGQRYSLLPFWYTLLYQAHREGIPVMRPLWVQYPQDVTTFNIDDQYLLGDALLVHPVSDSGAHGVQVYLPGQGEVWYDIQSYQKHHGPQTLYLPVTLSSIPVFQRGGTIVPRWMRVRRSSECMKDDPITLFVALSPQGTAQGELFLDDGHTFNYQTRQEFLLRRFSFSGNTLVSSSADPEGHFETPIWIERVVIIGAGKPAAVVLQTKGSPESRLSFQHDPETSVLVLRKPGINVASDWSIHLR
As for B3, the binding result is recorded as “binds”.
